## Library screening results

Results are given as percent effect.
The controls that fix the scale are not given in the record; negative values are as filed.
The compounds are a random part of those screened.
Two or more numbers in one place are separate tests of the same structure; such repeats can differ widely.

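Viability assay of Plasmodium falciparum sporozoites; the read-out is not stated. The concentration is filed as 10 mM, unlikely as a test dose, so the dose is not known. The record gives no direction; compounds that gave an IC50 in retests scored well above the rest, so higher reads as lower viability. Strong results were mostly tested again. Of about 34,000 compounds tested this way, about 280 (0.84%) reached 50% or more in at least one test.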

{"compound": "Cc1cc(C)n(CC2CCCN2C(=O)c2ccc3c(c2)OCO3)n1", "stereo": "stereo unspecified", "effect": -18.14}
{"compound": "c1cnn(Cc2ccc(CN3CCC4(CCCNC4)C3)cc2)c1", "stereo": "stereo unspecified", "effect": 11.14}
{"compound": "COc1ncc(C(=O)N2CCC(c3nc(C)n4ccsc34)CC2)cn1", "effect": 12.79}
{"compound": "COCCCNC(=O)CN(C)C(=O)c1cc(Cl)ccc1O", "effect": 0.983}
{"compound": "N#CC1(C(=O)N2CCCN(c3nccs3)CC2)CCCC1", "effect": 9.831}
{"compound": "CN(C(=O)Cc1cccs1)C1CCN(c2ccccn2)CC1", "effect": 2.892}
{"compound": "Cc1noc(C(C)C)c1C(=O)N1CCCN(Cc2cscn2)CC1", "effect": -2.081}
{"compound": "CNC(=O)C1CN(c2ccc(F)cc2)CCN1.Cl", "stereo": "stereo unspecified", "effect": -0.03218}
{"compound": "CN(C)C(=O)CN1CCC2(CCN(S(C)(=O)=O)CC2)C1=O", "effect": 9.72}
{"compound": "CCCNC(=O)c1sc(Nc2ccc(Cl)cn2)nc1C", "effect": -1.974}
{"compound": "CCOc1ccc(CN2CCC(c3nc(C)cc(C)n3)C2)cc1CO", "stereo": "stereo unspecified", "effect": -16.05}
{"compound": "Cc1noc(Cl)c1CC(=O)NCC(C)(O)c1ccc(F)cc1F", "stereo": "stereo unspecified", "effect": 3.834}
{"compound": "CCCOc1ccc(CNc2cncc(-n3cccn3)n2)cc1", "effect": -0.3069}
{"compound": "CS(=O)(=O)c1nnc(NC(=O)CCc2cccc(Cl)c2)[nH]1", "effect": -10.29}
{"compound": "CN(C)CC1CN(Cc2ccc(-n3cccn3)cc2)CCO1", "stereo": "stereo unspecified", "effect": 14.56}
{"compound": "CCc1c(C)sc(NC(=O)CN2CCN(CC)CC2)c1C(=O)OC", "effect": -9.63}
{"compound": "COc1c(CNCCC(=O)NC2CCCCC2)c(C(C)C)nn1C", "effect": 11.64}
{"compound": "CC(=O)N1CCC(N2CCC(c3nc(C)cc(C)n3)C2)CC1.O=CO", "stereo": "stereo unspecified", "effect": -1.55}
{"compound": "O=C(O)C(F)(F)F.[H][C@@]12CCN(Cc3nccs3)[C@]1([H])C[C@@H](C(=O)NCC1CCOCC1)O2", "effect": 2.527}
{"compound": "CC(OCC1CC1)C(=O)N1CCCN(Cc2cnn(C)c2)CC1", "stereo": "stereo unspecified", "effect": -8.353}
{"compound": "Cc1ccc(CN2CCN(Cc3ccncc3)CC2=O)cc1", "effect": -5}
{"compound": "CN1CC=C(c2noc(CCC(=O)N3CCc4ccccc4C3)n2)CC1", "effect": -11.53}
{"compound": "CC(=O)N1CC(=O)N(c2cnn(C)c2)CC12CCN(Cc1ccsc1)C2.O=C(O)C(F)(F)F.O=C(O)C(F)(F)F", "stereo": "stereo unspecified", "effect": 9.47}
{"compound": "Cc1cccc2[nH]c(COCC(=O)N3CCCn4cncc4C3)nc12", "effect": -14}
{"compound": "CC1CCN(C(=O)c2cnc3cc(C(=O)N(C)C)n(C)c3c2)CC1", "effect": -15.36}
{"compound": "Cc1nnc(C(C)N2CCN(Cc3ccc(C#N)cc3)CC2)o1", "stereo": "stereo unspecified", "effect": -3.36}
{"compound": "CC1c2ncc(COc3cccnc3)n2CCN1Cc1cnn(C)c1.O=C(O)C(F)(F)F.O=C(O)C(F)(F)F", "stereo": "stereo unspecified", "effect": 3.882}
{"compound": "O=C(O)C(F)(F)F.O=C(O)C(F)(F)F.[H][C@@]12CCN(Cc3ccsc3)C[C@]1([H])[C@@H](CNc1ncccn1)OC2", "effect": 9.612}
{"compound": "O=C(NCCOc1ccc(Cl)cn1)Nc1ccccn1", "effect": -3.509}
{"compound": "[H][C@]12CC[C@]([H])(CN(S(=O)(=O)N(C)C)C1)N(Cc1csc(C(C)=O)c1)C2", "effect": 0}
{"compound": "Cc1nn(CC(=O)N2CCN(c3ccncc3)CC2)c(C)c1Cl", "effect": -1.691}
{"compound": "Cc1ccc(NC2CCN(C(=O)c3n[nH]c4ccccc34)CC2)nn1", "effect": -21.57}
{"compound": "[H][C@@]12COC[C@]1([H])[C@@H](OCC1CCOCC1)CN2C(=O)c1cccn1C", "effect": 16.61}
{"compound": "COc1cc(CCC(=O)N2CCC(c3cc4ncc(C)nc4[nH]3)C2)on1", "stereo": "stereo unspecified", "effect": 3.144}
{"compound": "CC1=CC(C)(C)N(CN2C(=O)c3ccccc3C2=O)c2ccc(C)cc21", "effect": 0.1095}
{"compound": "CCN(CC)C(=O)CCNC(=O)N(C)Cc1ccc(SC)c(OC)c1", "effect": -0.5917}
{"compound": "[H][C@@]12COC[C@]1(CNC(=O)c1ccno1)CN(Cc1cc(C)on1)C2", "effect": -13.03}
{"compound": "Cc1cc(-c2cnc(N3CCCC3)nc2-c2ccc(C)s2)on1", "effect": -0.6695}
{"compound": "CC1=Nc2c(c(=O)[nH]n2C(C)C)C(c2ccc3c(c2)OCCO3)S1", "stereo": "stereo unspecified", "effect": "40.86 and 32.64"}
{"compound": "Cc1cncc(C(=O)N2CCC(Cn3cc(-c4ccsc4)nn3)CC2)c1", "effect": -10.94}
{"compound": "CCN(CC)CC(=O)N1CCCC1Cn1cccn1", "stereo": "stereo unspecified", "effect": 4.174}
{"compound": "COc1ccc(CNCCc2ccn(-c3ccccc3)n2)cc1O", "effect": -5.159}
{"compound": "c1ccc(-c2cc(CN3CCCCCC3c3ccco3)on2)nc1", "stereo": "stereo unspecified", "effect": 5.104}
{"compound": "O=C(C[S+]([O-])Cc1c(F)cccc1Cl)N1CCc2sccc2C1", "stereo": "stereo unspecified", "effect": -4.135}
{"compound": "CCOC(=O)c1s/c(=N\\C(=O)COc2cnc(C)cc2O)[nH]c1C", "effect": "-20.8 and -15.73"}

For reference, 4 entries once more:

Compound	effect
CNC(=O)C1CN(c2ccc(F)cc2)CCN1.Cl (stereo unspecified)	-0.03218%
CCN(CC)C(=O)CCNC(=O)N(C)Cc1ccc(SC)c(OC)c1	-0.5917%
Cc1noc(Cl)c1CC(=O)NCC(C)(O)c1ccc(F)cc1F (stereo unspecified)	3.834%
CC1CCN(C(=O)c2cnc3cc(C(=O)N(C)C)n(C)c3c2)CC1	-15.36%

Source: ChEMBL document CHEMBL3988442, “University of Dundee, Small-Polar-MMV Screening Library” (2021).